Test results: the supplement of paper PMC10849652
The other results are listed elsewhere or left out.

Sequences of proteins named here, by UniProt entry; tags and fusion partners are left off. A change or cut given only in a name is not applied to a line headed by its entry.
UniProt P07947, whole entry, looked up: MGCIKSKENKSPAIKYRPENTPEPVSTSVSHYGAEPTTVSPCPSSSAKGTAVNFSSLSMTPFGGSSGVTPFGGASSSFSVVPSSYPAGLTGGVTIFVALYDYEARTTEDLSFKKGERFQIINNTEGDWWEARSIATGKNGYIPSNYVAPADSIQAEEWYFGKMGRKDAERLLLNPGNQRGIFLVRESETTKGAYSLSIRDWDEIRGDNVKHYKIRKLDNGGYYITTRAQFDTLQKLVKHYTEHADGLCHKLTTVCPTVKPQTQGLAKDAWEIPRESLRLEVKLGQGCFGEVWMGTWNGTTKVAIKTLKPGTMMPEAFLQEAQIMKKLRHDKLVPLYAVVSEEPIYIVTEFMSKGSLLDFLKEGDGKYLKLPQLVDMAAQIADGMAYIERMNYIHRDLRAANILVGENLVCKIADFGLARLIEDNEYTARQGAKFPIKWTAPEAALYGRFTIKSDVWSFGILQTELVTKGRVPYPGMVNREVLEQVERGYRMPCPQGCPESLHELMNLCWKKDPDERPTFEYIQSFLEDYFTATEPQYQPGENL
UniProt Q8WU90: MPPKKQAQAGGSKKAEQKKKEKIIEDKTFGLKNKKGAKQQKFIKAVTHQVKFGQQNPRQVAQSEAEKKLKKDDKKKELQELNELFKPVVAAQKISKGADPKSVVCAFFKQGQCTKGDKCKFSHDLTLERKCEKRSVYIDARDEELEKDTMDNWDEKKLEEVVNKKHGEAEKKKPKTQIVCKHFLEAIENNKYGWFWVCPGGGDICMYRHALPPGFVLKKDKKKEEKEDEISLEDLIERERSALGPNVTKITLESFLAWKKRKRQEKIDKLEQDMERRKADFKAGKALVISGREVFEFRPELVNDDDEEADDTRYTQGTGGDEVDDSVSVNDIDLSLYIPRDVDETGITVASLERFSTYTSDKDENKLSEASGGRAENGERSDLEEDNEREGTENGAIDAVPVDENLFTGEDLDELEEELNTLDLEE
UniProt Q9HCC9: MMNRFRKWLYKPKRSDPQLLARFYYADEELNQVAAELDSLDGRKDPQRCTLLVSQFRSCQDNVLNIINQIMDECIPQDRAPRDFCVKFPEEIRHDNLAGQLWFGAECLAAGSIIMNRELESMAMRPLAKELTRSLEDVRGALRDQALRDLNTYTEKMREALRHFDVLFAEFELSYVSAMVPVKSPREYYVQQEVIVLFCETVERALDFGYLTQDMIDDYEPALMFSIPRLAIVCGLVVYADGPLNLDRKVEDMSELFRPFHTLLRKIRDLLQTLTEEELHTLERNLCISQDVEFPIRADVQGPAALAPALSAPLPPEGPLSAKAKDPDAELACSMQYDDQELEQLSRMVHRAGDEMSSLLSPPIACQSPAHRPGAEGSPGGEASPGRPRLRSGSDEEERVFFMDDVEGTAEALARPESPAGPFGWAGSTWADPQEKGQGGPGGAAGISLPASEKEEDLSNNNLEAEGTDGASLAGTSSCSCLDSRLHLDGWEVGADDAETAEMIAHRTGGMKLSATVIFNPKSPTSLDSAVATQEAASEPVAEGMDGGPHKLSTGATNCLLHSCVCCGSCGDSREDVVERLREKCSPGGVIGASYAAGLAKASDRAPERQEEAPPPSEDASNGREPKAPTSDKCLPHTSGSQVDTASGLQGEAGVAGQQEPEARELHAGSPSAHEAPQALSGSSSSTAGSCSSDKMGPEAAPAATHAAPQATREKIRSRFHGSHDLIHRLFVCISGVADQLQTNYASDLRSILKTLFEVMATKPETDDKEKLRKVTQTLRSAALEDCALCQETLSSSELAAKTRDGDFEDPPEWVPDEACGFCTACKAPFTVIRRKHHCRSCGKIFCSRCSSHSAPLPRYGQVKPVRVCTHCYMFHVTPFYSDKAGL
UniProt Q96TA2: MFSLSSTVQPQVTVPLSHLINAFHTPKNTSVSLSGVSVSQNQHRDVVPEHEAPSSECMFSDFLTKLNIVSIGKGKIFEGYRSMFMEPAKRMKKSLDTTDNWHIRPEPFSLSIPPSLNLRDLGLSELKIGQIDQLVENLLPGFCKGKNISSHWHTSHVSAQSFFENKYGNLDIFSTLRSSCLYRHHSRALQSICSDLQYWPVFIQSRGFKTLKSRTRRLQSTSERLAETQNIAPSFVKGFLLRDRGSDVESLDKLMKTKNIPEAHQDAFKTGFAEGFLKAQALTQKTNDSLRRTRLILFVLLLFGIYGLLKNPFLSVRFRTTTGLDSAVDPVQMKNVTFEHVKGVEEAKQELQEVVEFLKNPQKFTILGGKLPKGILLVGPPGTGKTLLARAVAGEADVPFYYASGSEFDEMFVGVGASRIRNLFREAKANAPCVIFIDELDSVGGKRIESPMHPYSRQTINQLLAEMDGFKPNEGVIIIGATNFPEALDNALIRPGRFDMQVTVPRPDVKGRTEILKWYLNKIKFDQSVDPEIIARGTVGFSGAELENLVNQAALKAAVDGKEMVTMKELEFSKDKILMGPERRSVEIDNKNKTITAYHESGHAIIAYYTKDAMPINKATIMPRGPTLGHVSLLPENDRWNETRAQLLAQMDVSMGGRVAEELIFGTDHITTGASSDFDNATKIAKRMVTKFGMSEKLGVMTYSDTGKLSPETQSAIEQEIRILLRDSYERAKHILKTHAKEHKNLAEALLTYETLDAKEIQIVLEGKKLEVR
UniProt Q9GZM5: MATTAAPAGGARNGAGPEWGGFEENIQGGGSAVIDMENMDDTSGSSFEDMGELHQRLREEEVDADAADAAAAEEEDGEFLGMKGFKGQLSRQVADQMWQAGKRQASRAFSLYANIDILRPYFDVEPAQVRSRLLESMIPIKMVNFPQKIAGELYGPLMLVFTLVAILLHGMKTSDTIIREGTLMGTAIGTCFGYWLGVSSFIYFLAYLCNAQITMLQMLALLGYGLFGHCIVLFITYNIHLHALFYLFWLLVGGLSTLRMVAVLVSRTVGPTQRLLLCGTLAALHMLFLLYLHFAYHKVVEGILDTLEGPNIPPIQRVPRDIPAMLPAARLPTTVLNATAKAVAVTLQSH
UniProt Q9NYG2: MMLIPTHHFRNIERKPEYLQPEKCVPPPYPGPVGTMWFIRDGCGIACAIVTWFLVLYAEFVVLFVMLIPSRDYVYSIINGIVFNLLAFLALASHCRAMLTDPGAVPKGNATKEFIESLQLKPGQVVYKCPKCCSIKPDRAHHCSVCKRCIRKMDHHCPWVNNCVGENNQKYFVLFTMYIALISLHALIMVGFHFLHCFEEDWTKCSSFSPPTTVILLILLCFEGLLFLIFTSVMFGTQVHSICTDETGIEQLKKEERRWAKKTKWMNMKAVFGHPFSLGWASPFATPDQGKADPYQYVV
UniProt P31946: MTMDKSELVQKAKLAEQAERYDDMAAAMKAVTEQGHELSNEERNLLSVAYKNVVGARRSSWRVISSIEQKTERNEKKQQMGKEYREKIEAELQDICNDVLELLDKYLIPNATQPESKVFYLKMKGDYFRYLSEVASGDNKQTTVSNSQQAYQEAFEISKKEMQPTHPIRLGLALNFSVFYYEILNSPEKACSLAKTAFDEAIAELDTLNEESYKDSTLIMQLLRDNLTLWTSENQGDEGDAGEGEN
UniProt Q9H6S0: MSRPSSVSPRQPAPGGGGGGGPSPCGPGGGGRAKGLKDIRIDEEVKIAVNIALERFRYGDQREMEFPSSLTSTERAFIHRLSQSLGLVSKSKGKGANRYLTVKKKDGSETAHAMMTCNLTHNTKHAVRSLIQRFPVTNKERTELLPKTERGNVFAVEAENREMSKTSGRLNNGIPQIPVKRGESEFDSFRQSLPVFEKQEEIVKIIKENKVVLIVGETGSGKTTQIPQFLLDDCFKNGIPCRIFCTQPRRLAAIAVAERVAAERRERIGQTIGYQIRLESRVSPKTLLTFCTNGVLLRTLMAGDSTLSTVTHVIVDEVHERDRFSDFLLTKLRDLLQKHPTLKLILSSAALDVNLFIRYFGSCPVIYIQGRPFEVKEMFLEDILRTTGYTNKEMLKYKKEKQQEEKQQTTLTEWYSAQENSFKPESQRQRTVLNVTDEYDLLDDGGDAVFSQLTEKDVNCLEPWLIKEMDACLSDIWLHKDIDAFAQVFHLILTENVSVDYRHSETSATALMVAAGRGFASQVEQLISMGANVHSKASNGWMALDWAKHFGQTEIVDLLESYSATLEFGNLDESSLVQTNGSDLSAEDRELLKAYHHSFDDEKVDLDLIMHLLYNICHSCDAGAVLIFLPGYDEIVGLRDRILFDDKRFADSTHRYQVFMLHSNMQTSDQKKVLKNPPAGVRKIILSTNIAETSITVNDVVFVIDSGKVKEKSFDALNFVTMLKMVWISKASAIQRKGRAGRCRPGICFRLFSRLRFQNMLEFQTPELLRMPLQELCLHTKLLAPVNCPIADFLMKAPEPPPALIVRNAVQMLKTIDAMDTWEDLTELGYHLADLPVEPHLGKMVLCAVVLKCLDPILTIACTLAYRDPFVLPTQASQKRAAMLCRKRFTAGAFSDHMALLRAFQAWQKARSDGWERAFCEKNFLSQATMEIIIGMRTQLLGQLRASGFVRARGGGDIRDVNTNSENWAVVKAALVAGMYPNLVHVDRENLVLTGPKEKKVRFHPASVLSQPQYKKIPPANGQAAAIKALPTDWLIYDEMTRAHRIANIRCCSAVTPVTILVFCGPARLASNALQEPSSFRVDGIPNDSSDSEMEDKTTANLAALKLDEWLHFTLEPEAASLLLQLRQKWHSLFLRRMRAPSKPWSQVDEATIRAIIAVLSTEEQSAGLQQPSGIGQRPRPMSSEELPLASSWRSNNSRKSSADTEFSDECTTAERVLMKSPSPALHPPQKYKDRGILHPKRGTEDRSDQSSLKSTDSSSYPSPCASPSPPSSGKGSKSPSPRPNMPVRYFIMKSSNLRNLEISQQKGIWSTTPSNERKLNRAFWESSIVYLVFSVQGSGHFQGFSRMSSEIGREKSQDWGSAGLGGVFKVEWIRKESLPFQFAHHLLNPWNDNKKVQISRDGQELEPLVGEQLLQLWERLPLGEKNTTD
UniProt Q9NUA8: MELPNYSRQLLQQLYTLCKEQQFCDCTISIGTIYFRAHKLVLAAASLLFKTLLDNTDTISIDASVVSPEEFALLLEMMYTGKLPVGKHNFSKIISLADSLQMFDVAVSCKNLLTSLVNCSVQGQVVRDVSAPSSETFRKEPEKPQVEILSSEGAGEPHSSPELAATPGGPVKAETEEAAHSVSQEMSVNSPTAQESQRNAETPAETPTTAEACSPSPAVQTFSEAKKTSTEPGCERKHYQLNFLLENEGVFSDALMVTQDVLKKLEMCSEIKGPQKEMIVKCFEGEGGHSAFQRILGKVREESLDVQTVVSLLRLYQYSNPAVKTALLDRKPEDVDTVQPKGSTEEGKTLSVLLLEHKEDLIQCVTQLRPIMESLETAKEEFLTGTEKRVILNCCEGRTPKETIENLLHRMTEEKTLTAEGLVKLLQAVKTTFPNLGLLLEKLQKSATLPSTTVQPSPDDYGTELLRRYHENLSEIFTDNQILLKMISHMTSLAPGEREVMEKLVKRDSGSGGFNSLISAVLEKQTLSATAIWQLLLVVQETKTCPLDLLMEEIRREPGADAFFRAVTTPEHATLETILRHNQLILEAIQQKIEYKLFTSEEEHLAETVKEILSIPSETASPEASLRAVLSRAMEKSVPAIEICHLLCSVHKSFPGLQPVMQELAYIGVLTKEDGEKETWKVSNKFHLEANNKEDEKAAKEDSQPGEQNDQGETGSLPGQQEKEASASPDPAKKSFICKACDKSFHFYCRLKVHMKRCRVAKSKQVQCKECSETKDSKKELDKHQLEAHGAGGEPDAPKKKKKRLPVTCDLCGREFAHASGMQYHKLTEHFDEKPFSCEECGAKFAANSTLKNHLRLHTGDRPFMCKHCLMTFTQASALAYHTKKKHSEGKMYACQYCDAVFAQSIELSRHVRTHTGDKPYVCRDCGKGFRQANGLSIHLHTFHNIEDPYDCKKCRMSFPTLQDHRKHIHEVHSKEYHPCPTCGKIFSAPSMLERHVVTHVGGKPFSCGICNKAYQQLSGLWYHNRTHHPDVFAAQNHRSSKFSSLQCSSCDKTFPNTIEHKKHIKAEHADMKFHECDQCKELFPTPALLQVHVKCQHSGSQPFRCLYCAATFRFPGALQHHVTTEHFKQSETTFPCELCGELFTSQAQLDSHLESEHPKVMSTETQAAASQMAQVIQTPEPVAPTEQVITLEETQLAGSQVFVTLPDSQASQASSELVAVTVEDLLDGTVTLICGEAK
UniProt Q8N4Q0: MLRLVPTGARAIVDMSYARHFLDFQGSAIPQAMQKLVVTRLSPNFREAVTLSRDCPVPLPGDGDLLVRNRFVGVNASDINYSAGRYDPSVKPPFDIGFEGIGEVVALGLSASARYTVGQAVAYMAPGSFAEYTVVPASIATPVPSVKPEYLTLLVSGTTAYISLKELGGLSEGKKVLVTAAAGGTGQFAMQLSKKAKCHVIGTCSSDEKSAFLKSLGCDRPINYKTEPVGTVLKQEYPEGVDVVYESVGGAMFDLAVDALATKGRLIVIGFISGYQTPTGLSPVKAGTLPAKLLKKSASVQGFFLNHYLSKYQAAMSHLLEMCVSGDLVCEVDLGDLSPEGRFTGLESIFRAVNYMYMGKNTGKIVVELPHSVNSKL

Legend:
Test in all cases: log2 fold change, soluble protein after heating vs DMSO (PISA); higher = thermal stabilisation; K562 lysate, 10 uM; active = over 0.2 and 3.5 SD of the protein, either way, in both replicates (recomputed)
[1] = compound: Cc1cn(-c2cc(NC(=O)c3ccc(C)c(Nc4nccc(-c5cccnc5)n4)c3)cc(C(F)(F)F)c2)cn1 [nilotinib]
How it was run: (§1)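 Dounce homogenisation of K562 pellets in PBS pH 7.4 with 1 mM MgCl2 produced a crude extract, used at 1 mg/mL protein. Exposure to 10 μM compound lasted 30 min, and aliquots were then heated for 3 min across 48°C-58°C, pooled and brought to 0.5% NP-40 at 4°C. The supernatant after 21,000xg for 90 min was quantified by TMTpro 16plex LC-MS/MS with channel sums equalised. Duplicate values are given as log-two fold change in thermal stability relative to solvent controls.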

[2] = compound: Cc1nc(Nc2n[nH]c3c2CN(C(=O)N[C@H](CN(C)C)c2ccccc2)C3(C)C)c2sccc2n1
How it was run: as §1

[3] = compound: Cc1nc(Nc2ncc(C(=O)Nc3c(C)cccc3Cl)s2)cc(N2CCN(CCO)CC2)n1 [dasatinib]
How it was run: as §1

[4] = compound: Cc1ncc(-c2ccnc(Nc3ccc(S(C)(=O)=O)cc3)n2)n1C(C)C
How it was run: as §1

[5] = compound: Cn1cc(-c2ccc3c(c2)CCN3C(=O)Cc2cccc(C(F)(F)F)c2)c2c(N)ncnc21
How it was run: as §1

[6] = compound: Cn1cc(CNCC2CCN(c3ncc(C(=O)NO)cn3)CC2)c2ccccc21 [quisinostat]
How it was run: as §1

[7] = compound: Cn1cncc1[C@@](N)(c1ccc(Cl)cc1)c1ccc2c(c1)c(-c1cccc(Cl)c1)cc(=O)n2C [tipifarnib]
How it was run: as §1

[8] = compound: NC(=O)Nc1cc(-c2cccc(F)c2)sc1C(=O)N[C@H]1CCCNC1
How it was run: as §1

[9] = compound: NC(=O)c1cnc(N[C@@H]2CCCC[C@@H]2N)nc1Nc1cccc(-n2nccn2)c1
How it was run: as §1

[10] = compound: NC1(c2ccc(-c3nc4ccn5c(=O)[nH]nc5c4cc3-c3ccccc3)cc2)CCC1
How it was run: as §1

[11] = compound: NCC(=O)Nc1ccc(-n2nc(C(F)(F)F)cc2-c2ccc3c(ccc4ccccc43)c2)cc1
How it was run: as §1

[12] = compound: O=C(CCCCCCC(=O)Nc1ccccc1)NO [vorinostat]
How it was run: as §1

[13] = compound: O=C(O)c1ccc2c(c1)nc(Nc1cccc(Cl)c1)c1ccncc12 [silmitasertib]
How it was run: as §1

[14] = compound: O=C1NC(=O)C(c2cnc3ccccn23)=C1c1cn2c3c(cc(F)cc13)CN(C(=O)N1CCCCC1)CC2
How it was run: as §1

[15] = compound: c1cn2cc(-c3ccc4cn[nH]c4c3)nc(Nc3ccc(N4CCOCC4)cc3)c2n1 [entospletinib]
How it was run: as §1

Target	log2 fold change [1]	log2 fold change [2]	log2 fold change [3]	log2 fold change [4]	log2 fold change [5]	log2 fold change [6]	log2 fold change [7]	log2 fold change [8]	log2 fold change [9]	log2 fold change [10]	log2 fold change [11]	log2 fold change [12]	log2 fold change [13]	log2 fold change [14]	log2 fold change [15]
YWHAH (UniProt Q04917)	inactive: 0.016	inactive: 0	inactive: 0.038	inactive: 0.058	inactive: 0.002	inactive: 0.15	inactive: 0.004	inactive: -0.024	inactive: 0.002	inactive: 0.013	inactive: -0.011	inactive: 0.066	inactive: 0.026	inactive: -0.017	inactive: 0.003
YES1 (UniProt P07947)	inactive: 0.043	inactive: 0.008	inactive: 0.154	inactive: -0.104	inactive: -0.087	inactive: -0.084	inactive: -0.157	active: 0.589	inactive: 0.032	inactive: 0.054	inactive: 0.09	inactive: -0.067	inactive: -0.187	inactive: -0.054	inactive: 0.038
ZC3H15 (UniProt Q8WU90)	inactive: 0.006	inactive: -0.019	inactive: 0.031	inactive: 0.025	inactive: -0.013	inactive: -0.011	inactive: -0.012	inactive: -0.021	inactive: -0.004	inactive: 0.025	inactive: -0.008	inactive: 0.08	inactive: -0.049	inactive: -0.024	inactive: 0.001
ZFYVE28 (UniProt Q9HCC9)	inactive: 0.102	inactive: 0.004	inactive: 0.038	inactive: 0.063	inactive: -0.046	inactive: -0.004	inactive: -0.018	inactive: 0.036	inactive: -0.018	inactive: 0.027	inactive: 0.091	inactive: 0.148	inactive: -0.03	inactive: 0	inactive: -0.067
ZFC3H1 (UniProt O60293)	inactive: -0.021	inactive: -0.013	inactive: -0.057	inactive: -0.024	inactive: 0.03	inactive: -0.034	inactive: 0.032	inactive: 0.068	inactive: 0.001	inactive: -0.074	inactive: 0.023	inactive: -0.159	inactive: 0.045	inactive: 0.012	inactive: -0.094
YBX3 (UniProt P16989)	inactive: -0.013	inactive: -0.009	inactive: 0.008	inactive: -0.02	inactive: -0.036	inactive: -0.023	inactive: -0.014	inactive: -0.008	inactive: -0.023	inactive: -0.004	inactive: 0.007	inactive: 0.147	inactive: -0.015	inactive: 0.032	inactive: 0.001
YME1L1 (UniProt Q96TA2)	inactive: 0.011	inactive: -0.06	inactive: 0	inactive: 0.026	inactive: -0.044	inactive: -0.045	inactive: -0.019	inactive: 0.016	inactive: 0.06	inactive: -0.059	inactive: -0.001	inactive: 0.04	inactive: 0.007	inactive: -0.008	inactive: 0.02
YIPF3 (UniProt Q9GZM5)	inactive: -0.044	inactive: -0.005	inactive: 0.052	inactive: 0.007	inactive: -0.04	inactive: 0.036	inactive: -0.003	inactive: 0.025	inactive: -0.045	inactive: 0.025	inactive: -0.05	inactive: 0.147	inactive: 0.011	inactive: -0.02	inactive: 0.003
ZDHHC3 isoform 2 (UniProt Q9NYG2)	inactive: 0.113	inactive: -0.088	inactive: -0.143	inactive: 0.067	inactive: -0.009	inactive: -0.186	inactive: 0.025	inactive: 0.063	inactive: -0.017	inactive: -0.001	inactive: -0.039	inactive: 0.112	inactive: 0.094	inactive: -0.072	inactive: -0.007
YWHAB (UniProt P31946)	inactive: -0.003	inactive: -0.006	inactive: 0.069	inactive: -0.003	inactive: 0.025	inactive: -0.002	inactive: 0.046	inactive: 0	inactive: -0.012	inactive: 0.02	inactive: 0.066	inactive: 0.103	inactive: -0.027	inactive: -0.009	inactive: 0.016
YIPF5 isoform 3 (UniProt Q969M3)	inactive: -0.115	inactive: -0.129	inactive: 0.009	inactive: 0.042	inactive: -0.034	inactive: 0.072	inactive: -0.035	inactive: -0.06	inactive: 0.016	inactive: 0.035	inactive: -0.046	inactive: 0.05	inactive: -0.093	inactive: -0.142	inactive: -0.044
YTHDC2 (UniProt Q9H6S0)	inactive: 0.006	inactive: -0.001	inactive: -0.043	inactive: 0.03	inactive: 0.03	inactive: -0.046	inactive: 0.022	inactive: 0.06	inactive: -0.007	inactive: -0.054	inactive: 0.061	active: -0.231	inactive: -0.007	inactive: 0.018	inactive: 0.013
ZCCHC3 (UniProt Q9NUD5)	inactive: -0.031	inactive: 0.039	inactive: -0.025	inactive: -0.016	inactive: -0.021	inactive: -0.008	inactive: -0.013	inactive: 0.014	inactive: -0.018	inactive: 0.082	inactive: -0.017	inactive: -0.111	inactive: 0.123	inactive: -0.055	inactive: -0.024
ZC3H18 (UniProt E7ERS3)	inactive: -0.013	inactive: -0.024	inactive: -0.019	inactive: 0.013	inactive: 0.006	inactive: -0.093	inactive: -0.042	inactive: -0.002	inactive: 0.01	inactive: -0.034	inactive: 0.033	inactive: 0.036	inactive: -0.015	inactive: -0.064	inactive: 0
XRCC4 (UniProt Q13426)	inactive: -0.005	inactive: -0.043	inactive: 0.049	inactive: -0.008	inactive: 0.019	inactive: 0.132	inactive: -0.013	inactive: 0.002	inactive: -0.029	inactive: -0.055	inactive: 0.035	inactive: 0.125	inactive: 0.023	inactive: 0.06	inactive: -0.037
ZFYVE9 (UniProt O95405)	inactive: 0.037	inactive: 0.035	inactive: 0.013	inactive: -0.047	inactive: 0.073	inactive: -0.003	inactive: -0.035	inactive: 0.018	inactive: 0.087	inactive: -0.018	inactive: 0.072	inactive: -0.186	inactive: 0.004	inactive: 0.062	inactive: -0.011
YBX3 isoform 2 (UniProt P16989)	inactive: -0.032	inactive: 0.013	inactive: 0.026	inactive: 0.108	inactive: 0.051	inactive: -0.047	inactive: 0.041	inactive: -0.082	inactive: 0.053	inactive: 0.022	inactive: -0.059	inactive: 0.186	inactive: 0.015	inactive: -0.056	inactive: 0.006
ZBTB40 (UniProt Q9NUA8)	inactive: -0.076	inactive: 0.29	inactive: -0.024	inactive: 0.086	inactive: -0.051	inactive: -0.01	inactive: 0.078	inactive: -0.018	inactive: 0.004	inactive: 0.058	inactive: 0.073	inactive: -0.118	inactive: 0.024	inactive: 0.036	
ZADH2 (UniProt Q8N4Q0)	inactive: 0.15	inactive: -0.066	inactive: -0.092	inactive: -0.047	inactive: -0.057	inactive: 0.096	inactive: 0.152	inactive: -0.076	inactive: 0.15	inactive: 0.09	inactive: -0.053	inactive: 0.169	inactive: 0.037	inactive: 0.079	
ZBTB21 (UniProt Q9ULJ3)	inactive: 0.029	inactive: -0.026	inactive: 0.032	inactive: -0.006	inactive: -0.016	inactive: 0.09	inactive: 0.015	inactive: 0.028	inactive: -0.007	inactive: 0.14	inactive: -0.058	inactive: 0.061	inactive: -0.013	inactive: -0.017	inactive: -0.114
ZFAND5 (UniProt O76080)	inactive: 0.029	inactive: 0.016	inactive: 0.002	inactive: 0.116	inactive: 0.01	inactive: 0.104	inactive: -0.038	inactive: -0.191	inactive: 0.065	inactive: 0.175	inactive: 0.103	inactive: 0.233	inactive: 0.161	inactive: -0.039	

Part of the list above, set out differently.
Target,log2 fold change [1],log2 fold change [2],log2 fold change [3],log2 fold change [4],log2 fold change [5],log2 fold change [6],log2 fold change [7],log2 fold change [8],log2 fold change [9],log2 fold change [10],log2 fold change [11],log2 fold change [12],log2 fold change [13],log2 fold change [14],log2 fold change [15]
YWHAB (UniProt P31946),inactive: -0.003,inactive: -0.006,inactive: 0.069,inactive: -0.003,inactive: 0.025,inactive: -0.002,inactive: 0.046,inactive: 0,inactive: -0.012,inactive: 0.02,inactive: 0.066,inactive: 0.103,inactive: -0.027,inactive: -0.009,inactive: 0.016
YIPF5 isoform 3 (UniProt Q969M3),inactive: -0.115,inactive: -0.129,inactive: 0.009,inactive: 0.042,inactive: -0.034,inactive: 0.072,inactive: -0.035,inactive: -0.06,inactive: 0.016,inactive: 0.035,inactive: -0.046,inactive: 0.05,inactive: -0.093,inactive: -0.142,inactive: -0.044
